# According to article PMC3799625:
# These are yes or no findings as the source states them, for the method shown. In cells and extracts the contact can be indirect. Some binding calls cover weakened binding; strength is not graded here.
# T1: Fas (CD95/APO-1/TNFRSF6) (human (endogenous in Beas2B)), P25445
# T1 chain: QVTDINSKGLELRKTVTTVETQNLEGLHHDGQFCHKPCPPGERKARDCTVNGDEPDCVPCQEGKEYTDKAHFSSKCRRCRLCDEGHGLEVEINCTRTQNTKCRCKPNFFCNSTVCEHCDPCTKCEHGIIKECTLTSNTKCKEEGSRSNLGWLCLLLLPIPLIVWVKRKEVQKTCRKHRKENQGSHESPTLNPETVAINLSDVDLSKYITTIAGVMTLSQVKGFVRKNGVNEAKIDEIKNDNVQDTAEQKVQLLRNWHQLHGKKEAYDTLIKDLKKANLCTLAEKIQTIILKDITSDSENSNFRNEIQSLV
# What was measured:
# [1] = target: Fas (CD95/APO-1/TNFRSF6) (human (endogenous in Beas2B)) (UniProt P25445); test: co-IP; Beas2B lysate immunoprecipitated with anti-Fas antibody, protein A/G Sepharose, Western blot; cells exposed to hyperoxia (4h, 24h) or room air; also cells with Flot-2 siRNA or control siRNA, and cells over-expressing Flot-2 or with empty vector
# [2] = target: T1, Fas (CD95/APO-1/TNFRSF6) (human …); test: as above; settings: remark: other sources report otherwise
binder,measurement,setting,value
"Flotillin-2/reggie-1 (protein, UniProt Q14254 1-428) MGNCHTVGPNEALVVSGGCCGSDYKQYVFGGWAWAWWCISDTQRISLEIMTLQPRCEDVETAEGVALTVTGVAQVKIMTEKELLAVACEQFLGKNVQDIKNVVLQTLEGHLRSILGTLTVEQIYQDRDQFAKLVREVAAPDVGRMGIEILSFTIKDVYDKVDYLSSLGKTQTAVVQRDADIGVAEAERDAGIREAECKKEMLDVKFMADTKIADSKRAFELQKSAFSEEVNIKTAEAQLAYELQGAREQQKIRQEEIEIEVVQRKKQIAVEAQEILRTDKELIATVRRPAEAEAHRIQQIAEGEKVKQVLLAQAEAEKIRKIGEAEAAVIEAMGKAEAERMKLKAEAYQKYGDAAKMALVLEALPQIAAKIAAPLTKVDEIVVLSGDNSKVTSEVNRLLAELPASVHALTGVDLSKIPLIKKATGVQV",binding,[1],binds
"Fas associated death domain, Q13158 1-208 (protein) MDPFLVLLHSVSSSLSSSELTELKFLCLGRVGKRKLERVQSGLDLFSMLLEQNDLEPGHTELLRELLASLRRHDLLRRVDDFEAGAAAGAAPGEEDLCAAFNVICDNVGKDWRRLARQLKVSDTKIDSIEDRYPRNLTERVRESLRIWKNTEKENATVAHLVGALRSCQMNLVADLVQEVQQARDLQNRSGAMSPMSWNSDASTSEAS",binding,[2],binds
"caspase-8 (FLICE), Q14790 1-479 (enzyme) MDFSRNLYDIGEQLDSEDLASLKFLSLDYIPQRKQEPIKDALMLFQRLQEKRMLEESNLSFLKELLFRINRLDLLITYLNTRKEEMERELQTPGRAQISAYRVMLYQISEEVSRSELRSFKFLLQEEISKCKLDDDMNLLDIFIEMEKRVILGEGKLDILKRVCAQINKSLLKIINDYEEFSKERSSSLEGSPDEFSNGEELCGVMTISDSPREQDSESQTLDKVYQMKSKPRGYCLIINNHNFAKAREKVPKLHSIRDRNGTHLDAGALTTTFEELHFEIKPHDDCTVEQIYEILKIYQLMDHSNMDCFICCILSHGDKGIIYGTDGQEAPIYELTSQFTGLKCPSLAGKPKVFFIQACQGDNYQKGIPVETDSEEQPYLEMDLSSPQTRYIPDEADFLLGMATVNNCVSYRNPAEGTWYIQSLCQSLRERCPRGDDILTILTEVNYEVSNKDDKKNMGKQMPQPTFTLRKKLVFPSD",binding,[2],binds
